From PubChem BioAssay AID2417 (National Center for Advancing Translational Sciences (NCATS), 2010)
In all, about 140,000 compounds went through this assay and about 4,300 (3.1%) were called active. The shares of active, inactive and inconclusive entries below differ from those in the screen.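 Rule for the calls: active = readout at or below -70, meaning at least 70% loss of cells showing the perinucleolar compartment, a nuclear body marking cancer cells; inconclusive = readout between -30 and a set limit; inactive = the rest.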

Test: High Content Assay for Compounds that inhibit the Assembly of the Perinucleolar Compartment;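 note: plate controls were DMSO wells for no effect and camptothecin positive control wells for full effect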
Conditions: PC3M PTB-GFP, PNC prevalence imaging, 16 h; at 10 µM; stronger effect = lower value
Procedure, shortened: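 PC3M cells stably expressing PTB-GFP, 750–1000 cells/well, treated 16 h at 37 °C with compound (23 nl of library stock), in duplicate. After paraformaldehyde fixation and Hoechst stain, imaged at 20x; PNC prevalence scored by image analysis.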

Structure (SMILES) | activity change (PNC), negative = inhibition
CC(C)CC(C(=O)Nn1cnnc1)N1C(=O)c2ccccc2C1=O (stereo not drawn) | active: -100%
COc1ccc(OC)c(-n2c(N)c(C(=O)NCC3CCCO3)c3nc4ccccc4nc32)c1 (stereo not drawn) | inconclusive: -44.4%
CC(=O)NC(=S)Nc1sc2c(c1C#N)CCCCC2 | active: -115%
COc1ccc2c(c1)c(=O)cc(-c1ccccc1)n2C | inactive: -3.58%
Cc1ccc(C2NC(=O)NC(O)(C(F)(F)F)C2C(=O)c2ccccc2)o1 (stereo not drawn) | inactive: -26.4%
Clc1ccccc1-c1nc2nc3ccccc3nc2n1-c1ccc2c(c1)OCO2 | inconclusive: -31.3%
CCc1nc(SCC(=O)N2CCN(C(=O)c3ccco3)CC2)c2c3c(sc2n1)CCCC3 | inactive: -21.8%
CC1CC(OCC(O)CN2CCN(Cc3ccccc3)CC2)CC(C)(C)C1 (stereo not drawn) | inconclusive: -39%
CCOC(=O)CSC1=C(C#N)C(=O)NC(c2ccc(OC)cc2)S1 (stereo not drawn) | inactive: 10.7%
CCCCCNc1nc2ccccc2nc1NS(=O)(=O)c1cccs1 | inconclusive: -36%
O=C(NCCc1csc(-c2cccnc2)n1)c1ccc(Br)o1 | inactive: 0.789%
C=CCOc1ccc(Oc2cc(C)nc(SC)n2)nn1 | inconclusive: -47.5%
O=C(CN1CCN(Cc2ccccc2F)C1=O)NCc1ccco1 | inactive: -6.92%
CCC(C)(C)C1CCC(=NNS(=O)(=O)c2ccc(C)c([N+](=O)[O-])c2)CC1 (stereo not drawn) | inconclusive: -37.4%
C/C=C(/C)C(=O)OC(C)(C)[C@@H]1Cc2c(ccc3ccc(=O)oc23)O1 | inconclusive: -56.4%
CC1CN(C(=O)c2cnn3c(C(F)F)cc(-c4ccccc4)nc23)CC(C)O1 (stereo not drawn) | inconclusive: -69%
O=C(Nc1cnn(Cc2ccc(F)cc2)c1)c1cc(-c2cccs2)on1 | inconclusive: -59.3%
COc1ccc(NC(=O)C(NC(C)=O)C(=O)NCc2ccccc2OC)cc1 (stereo not drawn) | inconclusive: -34.3%
CC(C)(C)NC(=O)C(c1ccsc1)N(CCc1ccccc1)C(=O)Cn1nnc2ccccc21 (stereo not drawn) | active: -88.6%
CCCCn1c(O)c(N=NC(=O)c2ccccc2NS(=O)(=O)c2cccs2)c2ccccc21 | inactive: 48.3%

Structure (SMILES) | activity change (PNC), negative = inhibition
C=CCNc1nc(Cl)ncc1F | active: -119%
CCOC(=O)CN1C(=O)C(CC)Oc2ccc(Cl)cc21 (stereo not drawn) | inconclusive: -40.9%
COc1cccc(-c2ccc(C#N)c(SCC(=O)NCCc3ccccc3)n2)c1 | inconclusive: -62%
Cc1ccc(CNC(=O)C2CCN(S(=O)(=O)c3cccs3)CC2)o1 | inconclusive: -35.6%
N=c1c2c(-c3ccccc3)c(-c3ccccc3)n(Cc3ccccc3)c2ncn1CCCn1ccnc1 | active: -97.6%
COc1cccc(OC)c1C(=O)N1CCN(Cc2ccc3c(c2)OCO3)CC1 | inconclusive: -36.8%
O=S(=O)(c1ccc(Sc2nnc3ccccn23)nc1)N1CCOCC1 | inconclusive: -48.2%
CS(=O)(=O)N1CCN(c2ccccc2NC(=O)Cc2ccccc2)CC1 | inactive: -22.7%
CCCS(=O)(=O)N1CCC(C(=O)NCCCOC)CC1 | inconclusive: -33.1%
COC(=O)c1cc(C(=O)OC)n(Cc2ccc(Br)cc2)n1 | inconclusive: -39.3%
Nc1ccccc1OCP(=O)(c1ccccc1)c1ccccc1 | inconclusive: -48%
Nc1nc(CSc2ncn(-c3ccccc3)n2)cs1 | inconclusive: -30.9%
O=C(Cc1ccccc1)NCC(=O)OCC(=O)c1ccc(Cl)c([N+](=O)[O-])c1 | inconclusive: -44.6%
COc1cc(O)c(CCC(=O)c2cc(OC)c(OC)c(OC)c2)c(OC)c1 | inconclusive: -31.1%
Cc1ccc(S(=O)(=O)N2CCCC2C(=O)OCc2ccco2)cc1 (stereo not drawn) | active: -108%
COc1cc(C)nc(-n2nc(C)cc2OC)n1 | inconclusive: -43.4%
c1ccc(-c2ccccc2OCCn2cncn2)cc1 | inconclusive: -61.4%
CS(=O)(=O)Nc1ccc([N+](=O)[O-])cc1Oc1ccccc1 | inconclusive: -30.9%
O=C(Cc1cn(Cc2cccc(Cl)c2)c2ccccc12)N1CCCCCC1 | inactive: 40.8%
O=C(c1cc2c(s1)CCCCC2)N1CCN(c2ncccn2)CC1 | inactive: 36.6%

Structure (SMILES) | activity change (PNC), negative = inhibition
Cc1cc(NC(=O)c2cc3n(n2)C(C(F)(F)F)CC(c2ccco2)N3)n(-c2ccccc2)n1 (stereo not drawn) | inactive: 1.63%
COc1ccc(C(=O)/C=C/C(=O)N(Cc2ccccc2)C(C(=O)NC2CCCCC2)c2ccncc2)c(O)c1 (stereo not drawn) | active: -86.2%
COC(=O)c1cn(CC(=O)NC2CCCCCC2)c2ccccc12 | inconclusive: -41.1%
CCOC(=O)c1ccc(NC(=O)Nc2ccc(OC)c(OC)c2)cc1 | inconclusive: -61.6%
O=c1oc(-c2ccccc2[N+](=O)[O-])nc2ccccc12 | inconclusive: -78.8%
COc1ccc(/C=N/n2c(C)nnc2C)c(OC)c1 | inconclusive: -38.2%
CSc1oc(-c2ccccc2)nc1S(=O)(=O)c1ccc(C)cc1 | inconclusive: -41.5%
O=C(CNC(=O)c1ccccc1F)NCCOc1ccccc1Cl | inactive: 14.6%
C[N+]1(C)CCC(=C2c3ccccc3CC(=O)c3sccc32)CC1 | inactive: -8.88%
O=S(=O)(Nc1ccc2c(c1)OCO2)c1ccc(Br)s1 | inconclusive: -39.4%
CCC(=O)NC(=S)Nc1cccc(NC(=O)c2ccc(Cl)cc2Cl)c1 | inactive: -13.7%
Cc1ccc(-n2nnnc2SCC(=O)N2c3ccccc3NC(=O)C2(C)C)cc1 | active: -100%
COc1ccc(-c2c(-c3ccc(OCC(=O)NN)cc3O)n[nH]c2C(F)(F)F)cc1 | inconclusive: -46.1%
CC(=O)Nc1nc(SCCCc2ccccc2)n[nH]1 | inconclusive: -44.7%
C=CCNc1oc(-c2ccc(OCC)cc2)nc1C#N | inconclusive: -77.4%
Cc1cccc(S(=O)(=O)N(CC(=O)Nc2ccccc2C)Cc2ccco2)c1 | inconclusive: -49.6%
CCN(CC)c1nc(C#N)nc(N(CC)CC)n1 | inactive: 19%
CCOc1ccc(N2C(=O)CC(n3nc(C)cc3C)C2=O)cc1 (stereo not drawn) | inconclusive: -35.8%

3 compounds picked at random from the list so far, as already listed:
Structure (SMILES) | activity change (PNC), negative = inhibition
c1ccc(-c2ccccc2OCCn2cncn2)cc1 | inconclusive: -61.4%
COc1cccc(OC)c1C(=O)N1CCN(Cc2ccc3c(c2)OCO3)CC1 | inconclusive: -36.8%
CCC(C)(C)C1CCC(=NNS(=O)(=O)c2ccc(C)c([N+](=O)[O-])c2)CC1 (stereo not drawn) | inconclusive: -37.4%
